Results reported in US10174020B2, “Pyridone or pyrimidone derivative, preparation method therefor and application thereof” (Sichuan Haisco Pharmaceutical Co., Ltd., priority 2014, dated 2019).
pEC50: −log10 of the molar value. At least one structure is not confirmed: it was looked up by name or label, or the drawing left a doubt.

System: human plasma
Experiment: In vitro assay of the blood coagulation function of human plasma (APTT)
Format: biochemical
Settings: concentration required to double the plasma APTT, read-out: aPTT EC2×
Protocol: 20 ml blood was taken by venipuncture from the ulnar vein of each of 20 healthy volunteers aged 25 to 35 years who had not taken any medicines within last one week, and was collected in a sodium citrate anticoagulation tube, with the ratio of anticoagulant to blood being 1:9 (v/v). Anticoagulation blood was taken and centrifuged at 200 g for 15 min, the supernatant therefrom was taken and centrifuged at 2000 g for 15 min, and then the supernatant therefrom was collected, well mixed, separated into 4 to 5 ml aliquots, and stored at −80° C. For APTT and PT assays, a plasma sample was taken and rapidly thawed in a 37° C. water bath, and 6 μl test compound working solution was added per 294 μl plasma, while 6 μl DMSO was added for the blank control. The compounds and plasma were well mixed, and assayed in a coagulometer. The concentration of the compounds (EC2×) required to double the plasma APTT was determined with origin 8.5, and the results are shown in Table 2.

SMILES: O=C(Cn1ccc(-c2cc(Cl)ccc2-n2cnnn2)cc1=O)Nc1ccc2[nH]c(C(=O)O)cc2c1 [Compound 6]
- pEC50: 5.05
